PubChem BioAssay AID504764 | Drosophila RNAi Screening Center – 2011
In all, the deposit lists about 22,000 reagents; below is an unselected part of those that have a named target and a result. Over the whole deposit, 403 (1.9%) were called active. 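Unnormalised raw counts per well; ratio z-scores behind the hit calls and whether each hit raises or lowers signal are not deposited.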 Names joined by + are all predicted targets of the reagent. No sequences are given here. The record does not give: the amount of reagent.

- Test: 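Knock-downs that raise or lower a Notch target reporter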 (primary screen)
- Cell system: Drosophila Kc167 cells
- Reagent: long dsRNA against Drosophila genes
- Duration: about 5 days (4 days dsRNA, then 24 h after transfection)
- Treatment: transfection of constitutively active membrane-tethered Notch lacking the extracellular domain, read 24 h later
- Read-out: 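Firefly luciferase from an E(spl)m3 reporter with active Notch, plus control-promoter and uninduced reporter wells for normalisation; unnormalised counts, duplicate wells a and b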
- Direction: induced reporter light, run 1, well a and induced reporter light, run 1, well b: higher = more light from the Notch target reporter with active Notch; control promoter light, run 1, well a and control promoter light, run 1, well b: higher = more light from the viral control promoter (cell number, transfection, viability); uninduced reporter light, run 1, well a: higher = more light from the Notch target reporter without active Notch
- Hit rule: 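Wells with low control signal or poorly matching duplicates excluded; duplicates averaged; per source plate, z beyond ±2 for induced/control log2 ratio or beyond ±1.8 for induced/uninduced marks a hit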
- Meaning of the calls: active = modifier hit (raised or lowered Notch signal); inactive = not a hit

With knock-down of lz (lozenge) [DRSC18790] the results were induced reporter light, run 1, well a = 1.42e5; induced reporter light, run 1, well b = 1.28e5; control promoter light, run 1, well a = 1.79e5; control promoter light, run 1, well b = 2.15e5; uninduced reporter light, run 1, well a = 8000; inactive.
With knock-down of CG30457 [DRSC06661], the record shows induced reporter light, run 1, well a = 1.20e5; induced reporter light, run 1, well b = 84485; control promoter light, run 1, well a = 1.29e5; control promoter light, run 1, well b = 1.22e5; uninduced reporter light, run 1, well a = 10170; inactive.
After knock-down of CG7882 [DRSC04899] the results were induced reporter light, run 1, well a = 1.70e5; induced reporter light, run 1, well b = 1.43e5; control promoter light, run 1, well a = 1.67e5; control promoter light, run 1, well b = 1.45e5; uninduced reporter light, run 1, well a = 11820; inactive.
Ugt303B1 (UDP-glycosyltransferase family 303 member B1) [DRSC15141] showed induced reporter light, run 1, well a = 1.79e5; induced reporter light, run 1, well b = 1.82e5; control promoter light, run 1, well a = 1.82e5; control promoter light, run 1, well b = 1.75e5; uninduced reporter light, run 1, well a = 13710; inactive.
After knock-down of CG6454 [DRSC16044] the results were induced reporter light, run 1, well a = 1.61e5; induced reporter light, run 1, well b = 1.62e5; control promoter light, run 1, well a = 2.19e5; control promoter light, run 1, well b = 2.18e5; uninduced reporter light, run 1, well a = 15150; inactive.
With knock-down of CG8229 + CG33199 [DRSC05134] the results were induced reporter light, run 1, well a = 39605; induced reporter light, run 1, well b = 53880; control promoter light, run 1, well a = 60695; control promoter light, run 1, well b = 74445; uninduced reporter light, run 1, well a = 2495; inactive.
Knock-down of Golgin104 (Golgin 104) [DRSC10459] resulted in: induced reporter light, run 1, well a = 1.79e5; induced reporter light, run 1, well b = 1.20e5; control promoter light, run 1, well a = 90390; control promoter light, run 1, well b = 1.18e5; uninduced reporter light, run 1, well a = 10945; inactive.
After knock-down of Arts + Apl [DRSC10349], the screen gave induced reporter light, run 1, well a = 1.93e5; induced reporter light, run 1, well b = 1.91e5; control promoter light, run 1, well a = 2.28e5; control promoter light, run 1, well b = 1.84e5; uninduced reporter light, run 1, well a = 10590; inactive.
hyx (hyrax) [DRSC14462] gave induced reporter light, run 1, well a = 44420; induced reporter light, run 1, well b = 45635; control promoter light, run 1, well a = 40885; control promoter light, run 1, well b = 31405; uninduced reporter light, run 1, well a = 4345; inactive.
St1 (Sulfotransferase 1) [DRSC04504] scored induced reporter light, run 1, well a = 94945; induced reporter light, run 1, well b = 92900; control promoter light, run 1, well a = 70520; control promoter light, run 1, well b = 74490; uninduced reporter light, run 1, well a = 6670; inactive.
Cpr49Ag (Cuticular protein 49Ag) [DRSC07203] scored induced reporter light, run 1, well a = 1.09e5; induced reporter light, run 1, well b = 1.14e5; control promoter light, run 1, well a = 1.58e5; control promoter light, run 1, well b = 1.09e5; uninduced reporter light, run 1, well a = 9550; inactive.
Depletion of CG32564 [DRSC19933] came out at: induced reporter light, run 1, well a = 97780; induced reporter light, run 1, well b = 86145; control promoter light, run 1, well a = 90720; control promoter light, run 1, well b = 72365; uninduced reporter light, run 1, well a = 12828; inactive.
For CG12523 [DRSC09895], the values are induced reporter light, run 1, well a = 37110; induced reporter light, run 1, well b = 53170; control promoter light, run 1, well a = 69805; control promoter light, run 1, well b = 67110; uninduced reporter light, run 1, well a = 950; inactive.
With knock-down of CG13931 [DRSC08400], the screen gave induced reporter light, run 1, well a = 1.15e5; induced reporter light, run 1, well b = 1.06e5; control promoter light, run 1, well a = 1.81e5; control promoter light, run 1, well b = 2.60e5; uninduced reporter light, run 1, well a = 8520; inactive.
Knock-down of CG4313 [DRSC18514] came out at: induced reporter light, run 1, well a = 1.52e5; induced reporter light, run 1, well b = 1.87e5; control promoter light, run 1, well a = 1.82e5; control promoter light, run 1, well b = 2.30e5; uninduced reporter light, run 1, well a = 12960; inactive.
Against VhaAC39-1 (Vacuolar H[+] ATPase AC39 subunit 1) [DRSC18242] the deposit lists induced reporter light, run 1, well a = 1.55e5; induced reporter light, run 1, well b = 1.69e5; control promoter light, run 1, well a = 1.95e5; control promoter light, run 1, well b = 1.82e5; uninduced reporter light, run 1, well a = 12155; inactive.
Knock-down of Polr2J (RNA polymerase II subunit J) [DRSC02995] resulted in: induced reporter light, run 1, well a = 1.14e5; induced reporter light, run 1, well b = 1.34e5; control promoter light, run 1, well a = 1.38e5; control promoter light, run 1, well b = 1.42e5; uninduced reporter light, run 1, well a = 7750; inactive.
Depletion of CG2540 [DRSC19856] resulted in: induced reporter light, run 1, well a = 1.53e5; induced reporter light, run 1, well b = 1.69e5; control promoter light, run 1, well a = 2.22e5; control promoter light, run 1, well b = 1.79e5; uninduced reporter light, run 1, well a = 14155; inactive.

Copied from the entries so far for reference:
VhaAC39-1 (Vacuolar H[+] ATPase AC39 subunit 1) [DRSC18242] — induced reporter light, run 1, well a: 1.55e5; induced reporter light, run 1, well b: 1.69e5; control promoter light, run 1, well a: 1.95e5; control promoter light, run 1, well b: 1.82e5; uninduced reporter light, run 1, well a: 12155; Call: inactive
Polr2J (RNA polymerase II subunit J) [DRSC02995] — induced reporter light, run 1, well a: 1.14e5; induced reporter light, run 1, well b: 1.34e5; control promoter light, run 1, well a: 1.38e5; control promoter light, run 1, well b: 1.42e5; uninduced reporter light, run 1, well a: 7750; Call: inactive
